Source: publication PMC12280988
No constants are given. Whether binding was seen depends on the method and setting. Binding seen in cells or lysates may run through a third protein. Binding can be weak; no strength is given.

Target: T1, CKLF-like MARVEL transmembrane domain containing 3 (CMTM3), wild type (UniProt Q96MX0)
T1 sequence: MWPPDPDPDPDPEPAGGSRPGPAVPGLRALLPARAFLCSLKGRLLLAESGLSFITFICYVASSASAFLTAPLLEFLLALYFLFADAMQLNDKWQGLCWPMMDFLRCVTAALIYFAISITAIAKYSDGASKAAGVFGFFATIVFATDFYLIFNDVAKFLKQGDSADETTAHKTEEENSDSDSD
Test: co-IP; HEK 293 cells transfected with CMTM3 and deleted PPARγ forms; precipitation with anti-Myc, immunoblotting with anti-Myc and anti-HA

binding: binds
Substance: PPARγ ligand binding domain (LBD) deletion form (domain or fragment)
